Laboratory results from the supplement of paper PMC8920030.
This continues a long series; more values of the same kind are listed elsewhere. Where a SMILES comes first, the peptide text is derived from it. Bridges are numbered along the chain shown (N, C = ends). [ ]: non-standard residue; d: D form. The star is where a group is joined. Heptanoyl(5-Me) = CCC(C)CCCC(=O)*; Dab = NCC[C@H](N)C(=O)O

What was measured:
Settings in all cases: growth mode: biofilm, 24 h; exposure time: 24 h
colistin [1] = compound: T1, CCC(C)CCCC(=O)N[C@@H](CCN)C(=O)N[C@H](C(=O)N[C@@H](CCN)C(=O)N[C@H]1CCNC(=O)[C@H]([C@@H](C)O)NC(=O)[C@H](CCN)NC(=O)[C@H](CCN)NC(=O)[C@H](CC(C)C)NC(=O)[C@@H](CC(C)C)NC(=O)[C@H](CCN)NC1=O)[C@@H](C)O [colistin]; experiment: minimum concentration of killing, 4-log CFU reduction of biofilm (MCK99.99); higher = more biofilm tolerance
Protocol: (§1)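 Clinical P. aeruginosa isolates were grown as static biofilms for 24 h at 37 °C in LB in half-area 96-well plates, then exposed for 24 h to colistin at 1, 4, 16, 64, 256 or […]. Surviving CFU were counted by spotting serial dilutions. MCK is the lowest tested concentration giving the stated log reduction in CFU versus an untreated control; '>1024' means the reduction was not reached at the top dose, and 1 is the lowest dose tested (≤1).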

colistin [2] = compound: T1, colistin; experiment: minimum concentration of killing, 2-log CFU reduction of biofilm (MCK99); higher = more biofilm tolerance
Protocol: as §1

tobramycin [3] = compound: T2, NC[C@H]1O[C@H](O[C@H]2[C@H](O)[C@@H](O[C@H]3O[C@H](CO)[C@@H](O)[C@H](N)[C@H]3O)[C@H](N)C[C@@H]2N)[C@H](N)C[C@@H]1O [tobramycin]; experiment: minimum concentration of killing, 1-log CFU reduction of biofilm (MCK90); higher = more biofilm tolerance
Protocol: (§2)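 Clinical P. aeruginosa isolates were grown as static biofilms for 24 h at 37 °C in LB in half-area 96-well plates, then exposed for 24 h to tobramycin at 1, 4, 16, 64, 256 or […]. Surviving CFU were counted by spotting serial dilutions. MCK is the lowest tested concentration giving the stated log reduction in CFU versus an untreated control; '>1024' means the reduction was not reached at the top dose, and 1 is the lowest dose tested (≤1).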

colistin [4] = compound: T1, colistin; experiment: minimum concentration eradicating biofilm below detection limit (MCK-E); higher = more biofilm tolerance
Protocol: as §1

tobramycin [5] = compound: T2, tobramycin; experiment: minimum concentration of killing, 4-log CFU reduction of biofilm (MCK99.99); higher = more biofilm tolerance
Protocol: as §2

tobramycin [6] = compound: T2, tobramycin; experiment: minimum concentration of killing, 2-log CFU reduction of biofilm (MCK99); higher = more biofilm tolerance
Protocol: as §2

colistin [7] = compound: T1, colistin; experiment: minimum concentration of killing, 1-log CFU reduction of biofilm (MCK90); higher = more biofilm tolerance
Protocol: as §1

tobramycin [8] = compound: T2, tobramycin; experiment: minimum concentration eradicating biofilm below detection limit (MCK-E); higher = more biofilm tolerance
Protocol: as §2

Test System | minimum concentration of killing (colistin [1]) | minimum concentration of killing (colistin [2]) | minimum concentration of killing (tobramycin [3]) | minimum concentration eradicating biofilm below detection limit (colistin [4]) | minimum concentration of killing (tobramycin [5]) | minimum concentration of killing (tobramycin [6]) | minimum concentration of killing (colistin [7]) | minimum concentration eradicating biofilm below detection limit (tobramycin [8])
Pseudomonas aeruginosa clinical isolate M70564993 | 256 µg/mL | 256 µg/mL | 4 µg/mL | 256 µg/mL | 256 µg/mL | 64 µg/mL | 256 µg/mL | 256 µg/mL
Pseudomonas aeruginosa clinical isolate PSAE1975 | 256 µg/mL | 256 µg/mL | 16 µg/mL | 1020 µg/mL | 64 µg/mL | 16 µg/mL | 256 µg/mL | 64 µg/mL
Pseudomonas aeruginosa clinical isolate PSAE1654 | 256 µg/mL | 256 µg/mL | 4 µg/mL | 256 µg/mL | 64 µg/mL | 64 µg/mL | 64 µg/mL | 256 µg/mL
Pseudomonas aeruginosa clinical isolate Vb3320 | 256 µg/mL | 256 µg/mL | ≤ 1 µg/mL | 256 µg/mL | 4 µg/mL | ≤ 1 µg/mL | 16 µg/mL | 64 µg/mL
Pseudomonas aeruginosa clinical isolate CH4520 | 256 µg/mL | 256 µg/mL | ≤ 1 µg/mL | 256 µg/mL | 64 µg/mL | 4 µg/mL | 16 µg/mL | 64 µg/mL
Pseudomonas aeruginosa clinical isolate M70563004 | 256 µg/mL | 256 µg/mL | 4 µg/mL | 256 µg/mL | 16 µg/mL | 16 µg/mL | 64 µg/mL | 64 µg/mL
Pseudomonas aeruginosa clinical isolate CH2706 | 256 µg/mL | 256 µg/mL | 64 µg/mL | 256 µg/mL | > 1020 µg/mL | 1020 µg/mL | 64 µg/mL | > 1020 µg/mL
Pseudomonas aeruginosa clinical isolate ZG02512057 | 64 µg/mL | 64 µg/mL | 16 µg/mL | 64 µg/mL | 256 µg/mL | 16 µg/mL | 64 µg/mL | 1020 µg/mL
Pseudomonas aeruginosa clinical isolate MS2 | 64 µg/mL | 64 µg/mL | 64 µg/mL | 64 µg/mL | 1020 µg/mL | 256 µg/mL | 64 µg/mL | 1020 µg/mL
Pseudomonas aeruginosa clinical isolate MD4301 | 256 µg/mL | 64 µg/mL | 16 µg/mL | 256 µg/mL | 256 µg/mL | 256 µg/mL | 64 µg/mL | 256 µg/mL
Pseudomonas aeruginosa clinical isolate M70647319 | 256 µg/mL | 256 µg/mL | 4 µg/mL | 256 µg/mL | 256 µg/mL | 256 µg/mL | 4 µg/mL | > 1020 µg/mL
Pseudomonas aeruginosa clinical isolate ZG302370 | 256 µg/mL | 256 µg/mL | 4 µg/mL | 1020 µg/mL | 64 µg/mL | 16 µg/mL | 64 µg/mL | 64 µg/mL
Pseudomonas aeruginosa clinical isolate CH5462 | 256 µg/mL | 256 µg/mL | 16 µg/mL | 256 µg/mL | 256 µg/mL | 16 µg/mL | 256 µg/mL | 256 µg/mL
Pseudomonas aeruginosa clinical isolate PSAE1645 | 256 µg/mL | 256 µg/mL | ≤ 1 µg/mL | 256 µg/mL | 64 µg/mL | 4 µg/mL | 256 µg/mL | 64 µg/mL
Pseudomonas aeruginosa clinical isolate CH5052 | 256 µg/mL | 256 µg/mL | 256 µg/mL | 256 µg/mL | 1020 µg/mL | 256 µg/mL | 64 µg/mL | > 1020 µg/mL
Pseudomonas aeruginosa clinical isolate PSAE1934 | 256 µg/mL | 64 µg/mL | ≤ 1 µg/mL | 256 µg/mL | 4 µg/mL | ≤ 1 µg/mL | 64 µg/mL | 64 µg/mL
Pseudomonas aeruginosa clinical isolate ZG316694 | 256 µg/mL | 256 µg/mL | ≤ 1 µg/mL | 256 µg/mL | 64 µg/mL | 4 µg/mL | 256 µg/mL | 64 µg/mL
Pseudomonas aeruginosa clinical isolate M70649365 | 256 µg/mL | 256 µg/mL | 16 µg/mL | 256 µg/mL | 256 µg/mL | 16 µg/mL | 256 µg/mL | 1020 µg/mL
Pseudomonas aeruginosa clinical isolate CH4083 | 256 µg/mL | 256 µg/mL | 4 µg/mL | 256 µg/mL | 256 µg/mL | 4 µg/mL | 256 µg/mL | 1020 µg/mL
Pseudomonas aeruginosa clinical isolate CH2875 | 256 µg/mL | 256 µg/mL | ≤ 1 µg/mL | 256 µg/mL | 1020 µg/mL | 4 µg/mL | 16 µg/mL | 1020 µg/mL

Test System | minimum concentration of killing (colistin [1]) | minimum concentration of killing (colistin [2]) | minimum concentration of killing (tobramycin [3]) | minimum concentration eradicating biofilm below detection limit (colistin [4]) | minimum concentration of killing (tobramycin [5]) | minimum concentration of killing (tobramycin [6]) | minimum concentration of killing (colistin [7]) | minimum concentration eradicating biofilm below detection limit (tobramycin [8])
Pseudomonas aeruginosa clinical isolate F2942 | 256 µg/mL | 256 µg/mL | 256 µg/mL | 256 µg/mL | > 1020 µg/mL | > 1020 µg/mL | 256 µg/mL | > 1020 µg/mL
Pseudomonas aeruginosa clinical isolate CH5262 | 256 µg/mL | 64 µg/mL | 16 µg/mL | 256 µg/mL | 64 µg/mL | 16 µg/mL | 64 µg/mL | 256 µg/mL
Pseudomonas aeruginosa clinical isolate PSAE1647 | 256 µg/mL | 64 µg/mL | 4 µg/mL | 256 µg/mL | 64 µg/mL | 4 µg/mL | 64 µg/mL | 256 µg/mL
Pseudomonas aeruginosa clinical isolate ZG316717 | 256 µg/mL | 64 µg/mL | 16 µg/mL | 1020 µg/mL | 64 µg/mL | 16 µg/mL | 16 µg/mL | 1020 µg/mL
Pseudomonas aeruginosa clinical isolate CH4509 | 256 µg/mL | 256 µg/mL | 64 µg/mL | 256 µg/mL | 256 µg/mL | 64 µg/mL | 256 µg/mL | 256 µg/mL
Pseudomonas aeruginosa clinical isolate MS1 | 256 µg/mL | 256 µg/mL | 64 µg/mL | 256 µg/mL | 1020 µg/mL | 256 µg/mL | 256 µg/mL | 1020 µg/mL
Pseudomonas aeruginosa clinical isolate MHH15187 | 256 µg/mL | 64 µg/mL | ≤ 1 µg/mL | 256 µg/mL | 256 µg/mL | 16 µg/mL | ≤ 1 µg/mL | 256 µg/mL
Pseudomonas aeruginosa clinical isolate CH4528 | 256 µg/mL | 256 µg/mL | 4 µg/mL | 256 µg/mL | 256 µg/mL | 256 µg/mL | 256 µg/mL | 1020 µg/mL
Pseudomonas aeruginosa clinical isolate CH2764 | 256 µg/mL | 256 µg/mL | 4 µg/mL | 256 µg/mL | 256 µg/mL | 4 µg/mL | ≤ 1 µg/mL | 1020 µg/mL
Pseudomonas aeruginosa clinical isolate CH2922 | 256 µg/mL | 256 µg/mL | 4 µg/mL | 256 µg/mL | 64 µg/mL | 4 µg/mL | 256 µg/mL | 256 µg/mL
Pseudomonas aeruginosa clinical isolate F2805 | 256 µg/mL | 256 µg/mL | 64 µg/mL | 256 µg/mL | 1020 µg/mL | 256 µg/mL | 64 µg/mL | > 1020 µg/mL
Pseudomonas aeruginosa clinical isolate ZG205710 | 256 µg/mL | 256 µg/mL | 4 µg/mL | 256 µg/mL | 256 µg/mL | 16 µg/mL | 256 µg/mL | 256 µg/mL
Pseudomonas aeruginosa clinical isolate CH2718 | 256 µg/mL | 64 µg/mL | ≤ 1 µg/mL | 256 µg/mL | 16 µg/mL | ≤ 1 µg/mL | 64 µg/mL | 64 µg/mL
Pseudomonas aeruginosa clinical isolate MHH17501 | 256 µg/mL | 256 µg/mL | 64 µg/mL | 256 µg/mL | 256 µg/mL | 64 µg/mL | 256 µg/mL | 1020 µg/mL
Pseudomonas aeruginosa clinical isolate CH4780 | 64 µg/mL | 64 µg/mL | 16 µg/mL | 64 µg/mL | 256 µg/mL | 16 µg/mL | 64 µg/mL | 1020 µg/mL
Pseudomonas aeruginosa clinical isolate CH2860 | 256 µg/mL | 256 µg/mL | 64 µg/mL | 256 µg/mL | 256 µg/mL | 64 µg/mL | 16 µg/mL | 256 µg/mL
Pseudomonas aeruginosa clinical isolate F2084 | 1020 µg/mL | 256 µg/mL | 16 µg/mL | > 1020 µg/mL | 1020 µg/mL | 64 µg/mL | 256 µg/mL | > 1020 µg/mL
Pseudomonas aeruginosa clinical isolate CH2730 | 256 µg/mL | 256 µg/mL | 4 µg/mL | 256 µg/mL | 16 µg/mL | 4 µg/mL | 256 µg/mL | 64 µg/mL
Pseudomonas aeruginosa clinical isolate F2093 | 256 µg/mL | 256 µg/mL | 4 µg/mL | 256 µg/mL | 64 µg/mL | 64 µg/mL | 64 µg/mL | 256 µg/mL
Pseudomonas aeruginosa clinical isolate CH2713 | 256 µg/mL | 256 µg/mL | ≤ 1 µg/mL | 256 µg/mL | 16 µg/mL | ≤ 1 µg/mL | 256 µg/mL | 256 µg/mL
